Measured values taken from paper PMC8201222.

Protein sequences, listed by entry. Tags and fused reporters are not part of them.
UniProt Q7KZF4: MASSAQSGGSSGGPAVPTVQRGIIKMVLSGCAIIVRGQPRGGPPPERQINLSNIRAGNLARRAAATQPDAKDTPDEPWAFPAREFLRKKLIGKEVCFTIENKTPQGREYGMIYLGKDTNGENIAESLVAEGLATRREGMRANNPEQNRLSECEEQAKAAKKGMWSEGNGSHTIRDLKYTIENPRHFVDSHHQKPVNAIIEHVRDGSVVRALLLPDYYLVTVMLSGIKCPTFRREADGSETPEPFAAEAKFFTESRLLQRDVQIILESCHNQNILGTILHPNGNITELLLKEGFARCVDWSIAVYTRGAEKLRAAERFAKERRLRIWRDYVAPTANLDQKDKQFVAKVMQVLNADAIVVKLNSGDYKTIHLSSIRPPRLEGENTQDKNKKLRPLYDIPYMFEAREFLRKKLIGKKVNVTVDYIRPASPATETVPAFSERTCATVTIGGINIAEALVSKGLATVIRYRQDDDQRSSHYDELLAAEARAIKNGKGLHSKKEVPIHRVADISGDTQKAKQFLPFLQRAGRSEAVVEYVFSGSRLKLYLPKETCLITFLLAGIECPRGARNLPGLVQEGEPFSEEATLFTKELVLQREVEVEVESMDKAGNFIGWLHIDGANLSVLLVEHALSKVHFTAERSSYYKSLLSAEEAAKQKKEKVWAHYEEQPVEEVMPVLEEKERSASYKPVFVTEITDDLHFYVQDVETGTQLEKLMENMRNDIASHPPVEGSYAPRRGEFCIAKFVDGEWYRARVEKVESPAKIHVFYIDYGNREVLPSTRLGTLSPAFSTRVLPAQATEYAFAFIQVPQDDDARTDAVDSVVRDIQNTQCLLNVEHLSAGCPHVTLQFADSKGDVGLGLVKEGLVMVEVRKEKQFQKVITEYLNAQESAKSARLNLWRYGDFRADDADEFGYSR

Target: T1, HA-tagged astrocyte elevated gene-1 (AEG-1) (human) (UniProt Q86UE4)
T1 sequence: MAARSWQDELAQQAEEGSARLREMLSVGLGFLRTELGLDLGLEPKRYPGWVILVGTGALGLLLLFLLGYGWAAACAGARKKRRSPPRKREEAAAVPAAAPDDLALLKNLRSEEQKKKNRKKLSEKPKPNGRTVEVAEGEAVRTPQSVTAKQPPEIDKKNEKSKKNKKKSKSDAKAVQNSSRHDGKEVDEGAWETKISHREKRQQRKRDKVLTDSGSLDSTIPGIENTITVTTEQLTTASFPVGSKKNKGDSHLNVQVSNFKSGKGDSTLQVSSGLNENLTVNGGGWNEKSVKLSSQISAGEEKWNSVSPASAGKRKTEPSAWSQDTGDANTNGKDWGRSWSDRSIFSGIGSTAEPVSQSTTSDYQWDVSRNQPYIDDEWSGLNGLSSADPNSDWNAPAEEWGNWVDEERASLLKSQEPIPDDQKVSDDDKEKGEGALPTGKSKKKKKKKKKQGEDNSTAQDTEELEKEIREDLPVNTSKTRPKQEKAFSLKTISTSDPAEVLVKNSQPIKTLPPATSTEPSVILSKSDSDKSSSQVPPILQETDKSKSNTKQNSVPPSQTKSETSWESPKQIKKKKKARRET
Experiment: affinity purification with mass spectrometry; 293T cells transfected with EV or pcDNA3.1-AEG-1-HA; anti-HA IP of lysates at 4 °C overnight, protein A/G agarose beads, 5 washes with NETN lysis buffer; in-gel digestion, LC-MS/MS; hits filtered by a scatter plot of LFQ values (Perseus)

binding: binds
Substance: SND1 (from UniProt Q7KZF4 1-910)

These are yes or no findings as the source states them, for the method shown. In cells and extracts the contact can be indirect. These calls come from enrichment with a bait or labelling near it, and not all partners need be listed. Where a sequence is shown, tags or fusion partners need not be part of it.
